Laboratory results as given in the supplement of paper PMC4604168 (melanoma cell lines).
This is one part of the list. Many values rest on one well or one pass, so single values are uncertain.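 The apoptosis fraction was the count of cleaved-PARP antibody-stained nuclei relative to all DNA-stained nuclei, imaged in 1,536-well plates. Screening doses were set so most cells survived, and baseline and induced cleaved-PARP levels vary greatly across cell lines.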

Experiments:
Test in all cases: cleaved PARP positive nuclei fraction relative to DMSO control; melanoma cells; higher = more apoptosis
Conditions in all cases: library dose: low library concentration; 72 h
501Mel = tested on: 501Mel
A101D = tested on: A101D
A2058 = tested on: A2058
A375 = tested on: A375
C32 = tested on: C32
CBRC013 = tested on: CBRC013 (line from a melanoma biopsy)
CBRC014 = tested on: CBRC014 (line from a melanoma biopsy)
CBRC016 = tested on: CBRC016 (line from a melanoma biopsy)
CBRC017 = tested on: CBRC017 (line from a melanoma biopsy)

Structure (SMILES) | cleaved PARP positive nuclei fraction (501Mel) [%] | cleaved PARP positive nuclei fraction (A101D) [%] | cleaved PARP positive nuclei fraction (A2058) [%] | cleaved PARP positive nuclei fraction (A375) [%] | cleaved PARP positive nuclei fraction (C32) [%] | cleaved PARP positive nuclei fraction (CBRC013) [%] | cleaved PARP positive nuclei fraction (CBRC014) [%] | cleaved PARP positive nuclei fraction (CBRC016) [%] | cleaved PARP positive nuclei fraction (CBRC017) [%]
Cc1cc(SCc2sc(-c3ccc(C(F)(F)F)c(F)c3)nc2C)ccc1OCC(=O)O + C/C(O)=C(\C#N)C(=O)Nc1cc(Br)ccc1Br [LFM-A13] (first compound 2 µM, partner dose 2 µM) | 69.6 | 113 | 49.4 | 67.8 | 91.3 | 136 | 82.2 | 92.7 | 79.8
C[As](C)SC[C@H](NC(=O)CC[C@H](N)C(=O)O)C(=O)NCC(=O)O [Darinaparsin] + CCc1ccc(CCOc2ccc(CC3SC(=O)NC3=O)cc2)nc1 [pioglitazone] (first compound 0.4 µM, partner dose 2 µM) | 81.7 | 55.3 | 37.3 | 52.6 | 190 | 177 | 111 | 64.2 | 145
CO[C@@H]1[C@H](N(C)C(=O)c2ccccc2)C[C@H]2O[C@]1(C)n1c3ccccc3c3c4c(c5c6ccccc6n2c5c31)C(=O)NC4 [Midostaurin] + O=C(Oc1ccc([N+](=O)[O-])cc1)N1CCC(C(O)(c2ccc3c(c2)OCO3)c2ccc3c(c2)OCO3)CC1 [JZL184] (first compound 0.08 µM, partner dose 1 µM) | 90.4 | 33.2 | 103 | 62.5 | 38.3 | 140 | 92.3 | 121 | 80.2
C/C(O)=C(\C#N)C(=O)Nc1cc(Br)ccc1Br + Oc1nc(-c2ccc(C(F)(F)F)cc2)nc2c1CSCC2 [XAV939] (first compound 2 µM, partner dose 2 µM) | 70 | 118 | 47.8 | 47.1 | 84.7 | 97.8 | 96.7 | 23.1 | 80.4
Cn1cncc1[C@@](N)(c1ccc(Cl)cc1)c1ccc2c(c1)c(-c1cccc(Cl)c1)cc(=O)n2C [tipifarnib] + O=C(Oc1ccc([N+](=O)[O-])cc1)N1CCC(C(O)(c2ccc3c(c2)OCO3)c2ccc3c(c2)OCO3)CC1 [JZL184] (first compound 0.01 µM, partner dose 1 µM) | 65.6 | 118 | 46.6 | 28.7 | 43.9 | 310 | 94 | 67.6 | 90
O=C(O)c1ccc(-c2c[nH]c3ncc(-c4ccccc4)cc23)cc1C1CCCC1 + Cc1cc(SCc2sc(-c3ccc(C(F)(F)F)c(F)c3)nc2C)ccc1OCC(=O)O [GW0742] (first compound 0.16 µM, partner dose 2 µM) | 84.5 | 104 | 80.3 | 169 | 136 | 56.6 | 95.9 | 129 | 113
C[As](C)SC[C@H](NC(=O)CC[C@H](N)C(=O)O)C(=O)NCC(=O)O [Darinaparsin] + Cc1cc(SCc2sc(-c3ccc(C(F)(F)F)c(F)c3)nc2C)ccc1OCC(=O)O [GW0742] (first compound 0.4 µM, partner dose 2 µM) | 81 | 90.8 | 95.1 | 86.7 | 75.5 | 66.8 | 88.2 | 85.4 | 228
CCN(CC)CCCCNc1ncc2cc(-c3cc(OC)cc(OC)c3)c(NC(=O)NC(C)(C)C)nc2n1 + Cc1cc(SCc2sc(-c3ccc(C(F)(F)F)c(F)c3)nc2C)ccc1OCC(=O)O [GW0742] (first compound 0.1 µM, partner dose 2 µM) | 182 | 55.1 | 109 | 141 | 134 | 45.6 | 83.5 | 50.4 | 152
COCC[n+]1c2c(n(Cc3cnccn3)c1C)C(=O)c1ccccc1C2=O + Cc1cc(SCc2sc(-c3ccc(C(F)(F)F)c(F)c3)nc2C)ccc1OCC(=O)O [GW0742] (first compound 0.0004 µM, partner dose 2 µM) | 108 | 161 | 369 | 70.2 | 46.1 | 129 | 89.4 | 129 | 190
COC(=O)c1sccc1S(=O)(=O)Nc1ccc(Nc2ccccc2)cc1OC + C/C(O)=C(\C#N)C(=O)Nc1cc(Br)ccc1Br [LFM-A13] (first compound 1 µM, partner dose 2 µM) | 28.7 | 114 | 48.6 | 119 | 137 | 881 | 105 | 78.8 | 393
COc1cc(N2CCC(N3CCN(C)CC3)CC2)ccc1Nc1ncc(Cl)c(Nc2ccccc2S(=O)(=O)C(C)C)n1 + O=C(Oc1ccc([N+](=O)[O-])cc1)N1CCC(C(O)(c2ccc3c(c2)OCO3)c2ccc3c(c2)OCO3)CC1 [JZL184] (first compound 0.08 µM, partner dose 1 µM) | 170 | 154 | 65.8 | 160 | 88.2 | 292 | 85.6 | 48.3 | 90.8
CN(C)S(=O)(=O)c1ccc2c(c1)/C(=C/c1cc3c([nH]1)CCCC3)C(=O)N2 + O=C(Oc1ccc([N+](=O)[O-])cc1)N1CCC(C(O)(c2ccc3c(c2)OCO3)c2ccc3c(c2)OCO3)CC1 [JZL184] (first compound 0.4 µM, partner dose 1 µM) | 87.6 | 144 | 38.6 | 121 | 68.6 | 244 | 98.7 | 19.3 | 283
O=C(O)c1ccc(-c2c[nH]c3ncc(-c4ccccc4)cc23)cc1C1CCCC1 + O=C(Oc1ccc([N+](=O)[O-])cc1)N1CCC(C(O)(c2ccc3c(c2)OCO3)c2ccc3c(c2)OCO3)CC1 [JZL184] (first compound 0.16 µM, partner dose 1 µM) | 149 | 106 | 152 | 91.8 | 75.1 | 80.8 | 86.4 | 160 | 114
Cc1cc(SCc2sc(-c3ccc(C(F)(F)F)c(F)c3)nc2C)ccc1OCC(=O)O + Oc1nc(-c2ccc(C(F)(F)F)cc2)nc2c1CSCC2 [XAV939] (first compound 2 µM, partner dose 2 µM) | 43.8 | 83.3 | 174 | 69.6 | 162 | 246 | 99.9 | 64.1 | 84.3
Oc1cc(-c2nc(-c3ccccc3)[nH]c2-c2ccncc2)ccc1Cl + O=C(Oc1ccc([N+](=O)[O-])cc1)N1CCC(C(O)(c2ccc3c(c2)OCO3)c2ccc3c(c2)OCO3)CC1 [JZL184] (first compound 0.2 µM, partner dose 1 µM) | 93.5 | 239 | 62.5 | 286 | 89.9 | 201 | 116 | 84.6 | 151
C[C@]1(c2nc3c(C(N)=O)cccc3[nH]2)CCCN1 [Veliparib] + O=C(Oc1ccc([N+](=O)[O-])cc1)N1CCC(C(O)(c2ccc3c(c2)OCO3)c2ccc3c(c2)OCO3)CC1 [JZL184] (first compound 1.4 µM, partner dose 1 µM) | 76.2 | 233 | 186 | 60.3 | 123 | 390 | 97.6 | 90.4 | 96.7
C[As](C)SC[C@H](NC(=O)CC[C@H](N)C(=O)O)C(=O)NCC(=O)O [Darinaparsin] + CCCCCCCCCCCC1=C(O)C(=O)C=C(O)C1=O [Embelin] (first compound 0.4 µM, partner dose 1.2 µM) | 162 | 85.9 | 212 | 124 | 233 | 68 | 96.7 | 52.2 | 88
C[C@@H]1CCN(C(=O)CC#N)C[C@@H]1N(C)c1ncnc2[nH]ccc12 + C/C(O)=C(\C#N)C(=O)Nc1cc(Br)ccc1Br [LFM-A13] (first compound 1 µM, partner dose 2 µM) | 51.1 | 259 | 125 | 122 | 115 | 67.2 | 99.8 | 32.2 | 75.7
Cc1cc(SCc2sc(-c3ccc(C(F)(F)F)c(F)c3)nc2C)ccc1OCC(=O)O + CC(C)CCN1c2nc(Nc3cc(F)c(O)c(F)c3)ncc2N(C)C(=O)C1C [BID1870] (first compound 2 µM, partner dose 0.2 µM) | 61.1 | 106 | 60.4 | 58 | 41.4 | 44.9 | 121 | 132 | 114
C[As](C)SC[C@H](NC(=O)CC[C@H](N)C(=O)O)C(=O)NCC(=O)O [Darinaparsin] + O=c1cc(-c2cccc3c2Sc2ccccc2S3)oc(N2CCOCC2)c1 [KU55933] (first compound 0.4 µM, partner dose 1 µM) | 100 | 41.5 | 61 | 73.6 | 116 | 88.1 | 100 | 109 | 115
C[C@]1(c2nc3c(C(N)=O)cccc3[nH]2)CCCN1 [Veliparib] + Cc1cc(SCc2sc(-c3ccc(C(F)(F)F)c(F)c3)nc2C)ccc1OCC(=O)O [GW0742] (first compound 1.4 µM, partner dose 2 µM) | 245 | 55.9 | 137 | 89.8 | 180 | 43.8 | 89.2 | 77.9 | 129
COc1cc2ncnc(Nc3ccc(Oc4ccccc4)cc3)c2cc1OC + O=C(Oc1ccc([N+](=O)[O-])cc1)N1CCC(C(O)(c2ccc3c(c2)OCO3)c2ccc3c(c2)OCO3)CC1 [JZL184] (first compound 2 µM, partner dose 1 µM) | 139 | 68.5 | 78.9 | 119 | 43.6 | 70.7 | 85.1 | 49.4 | 123
Cn1c(Nc2ccc(C(F)(F)F)cc2)nc2cc(Oc3ccnc(-c4ncc(C(F)(F)F)[nH]4)c3)ccc21 + O=C(Oc1ccc([N+](=O)[O-])cc1)N1CCC(C(O)(c2ccc3c(c2)OCO3)c2ccc3c(c2)OCO3)CC1 [JZL184] (first compound 0.08 µM, partner dose 1 µM) | 64.6 | 64.2 | 213 | 411 | 57.1 | 134 | 90.8 | 109 | 138

Limited to cleaved PARP positive nuclei fraction (C32) [%] and cleaved PARP positive nuclei fraction (CBRC017) [%] (2 entries from above):
Structure (SMILES)	cleaved PARP positive nuclei fraction (C32) [%]	cleaved PARP positive nuclei fraction (CBRC017) [%]
C[As](C)SC[C@H](NC(=O)CC[C@H](N)C(=O)O)C(=O)NCC(=O)O [Darinaparsin] + CCc1ccc(CCOc2ccc(CC3SC(=O)NC3=O)cc2)nc1 [pioglitazone] (first compound 0.4 µM, partner dose 2 µM)	190	145
CO[C@@H]1[C@H](N(C)C(=O)c2ccccc2)C[C@H]2O[C@]1(C)n1c3ccccc3c3c4c(c5c6ccccc6n2c5c31)C(=O)NC4 [Midostaurin] + O=C(Oc1ccc([N+](=O)[O-])cc1)N1CCC(C(O)(c2ccc3c(c2)OCO3)c2ccc3c(c2)OCO3)CC1 [JZL184] (first compound 0.08 µM, partner dose 1 µM)	38.3	80.2
